Measured values: PMC9977683, “IFNγ binding to extracellular matrix prevents fatal systemic toxicity” (Nature Immunology, 2023)

Amino acid sequences for entries named in this document (tags omitted). A change or cut given only in a name is not applied to a line headed by its entry.
UniProt P01580: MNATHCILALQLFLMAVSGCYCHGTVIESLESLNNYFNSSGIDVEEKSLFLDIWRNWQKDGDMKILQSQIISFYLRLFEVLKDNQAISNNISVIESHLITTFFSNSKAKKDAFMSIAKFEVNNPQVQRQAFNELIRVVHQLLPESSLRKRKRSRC

Target: T1, IFNγR1 extracellular domain (amino acids 26–254), recombinant (mouse) (UniProt P15261)
T1 sequence: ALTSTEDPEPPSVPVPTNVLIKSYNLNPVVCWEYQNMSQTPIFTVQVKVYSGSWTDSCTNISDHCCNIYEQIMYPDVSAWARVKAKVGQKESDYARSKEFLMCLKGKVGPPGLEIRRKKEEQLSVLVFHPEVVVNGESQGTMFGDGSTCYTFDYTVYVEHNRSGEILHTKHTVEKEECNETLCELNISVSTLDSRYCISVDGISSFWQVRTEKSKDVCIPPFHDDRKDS
Experiment: SPR; Biacore T200, CM4 chip coated with anti-His5 onto which recombinant IFNγR1 was immobilised; IFNγ variants injected over 180 s at 0, 1, 2.5, 5, 10, 25 and 50 nM; both purified

For “IFNγ^ΔKRKR–GFP fusion protein, recombinant (from UniProt P01580) (ligand)”, the binding was “binds”.

“IFNγ^ΔKRKR, recombinant (IFNγ lacking the ECM-binding domain KRKR) (from UniProt P01580) (ligand)” was tested, and the binding was “binds”.

Results are given in words; binding and its absence hold for the method and conditions named. A result given as binding can be weak or reduced; the word gives no strength.
